Test [1] deals with cynomolgus monkey BCMA on cells (HEK293T/cynoBCMA) (cynomolgus monkey). Briefly: FACS on HEK293T/cynoBCMA cells.
Test [2] shares this target. Briefly: FACS on HEK293T cell strain overexpressing cynomolgus monkey BCMA [B].

Binding data for 2 molecules are collected here from patent publication US20220340673A1.

Results are given in words; binding and its absence hold for the method and conditions named. Some results given as binding are weak or reduced against the parent protein; the word gives no strength.

B1: positive control 1, PR000274 (anti-BCMA antibody CA8-J6M0 hIgG1) (antibody, V domains shown)
VH: QVQLVQSGAEVKKPGSSVKVSCKASGGTFSNYWMHWVRQAPGQGLEWMGATYRGHSDTYYNQKFKGRVTITADKSTSTAYMELSSLRSEDTAVYYCARGAIYDGYDVLDNWGQGTLVTVSS
VL: DIQMTQSPSSLSASVGDRVTITCSASQDISNYLNWYQQKPGKAPKLLIYYTSNLHSGVPSRFSGSGSGTDFTLTISSLQPEDFATYYCQQYRKLPWTFGQGTKLEIKR
Take B1: the binding entry in test [1] and in test [2] was “binds” in each case.

B2: anti-human BCMA HCAb monoclonal antibody PR001046 (antibody, human IgG1, V domains shown)
VH: EVQLVETGGGLIQPGGSLRLSCAASGFTVSDNYMTWVRQAPGKGLEWVSVIFSGGNTYYADSVKGRFTISRDNAKNTLYLQMNSLRAEDTALYYCARRNYDDTRGTDVFDIWGQGTMVTVSS
With B2, the binding entry in test [1] and in test [2] was “binds” throughout.
